# Data taken from the supplement of paper PMC8728848.
# The other results are listed elsewhere or left out.
# B1: AT1G77380(17) (Arabidopsis thaliana), Q39134 (protein)
# chain: MVQNHQTVLAVDMPQTGGSKYLDDDGKNKRTGSVWTASAHIITAVIGSGVLSLAWATAQLGWLAGPVVMLLFSAVTYFTSSLLAACYRSGDPISGKRNYTYMDAVRSNLGGVKVTLCGIVQYLNIFGVAIGYTIASAISMMAIKRSNCFHKSGGKDPCHMNSNPYMIAFGLVQILFSQIPDFDQLWWLSILAAVMSFTYSSAGLALGIAQVVVNGKVKGSLTGISIGAVTETQKIWRTFQALGDIAFAYSYSIILIEIQDTVKSPPSEEKTMKKATLVSVSVTTMFYMLCGCMGYAAFGDLSPGNLLTGFGFYNPYWLLDIANAAIVIHLIGAYQVYCQPLFAFIEKQASIQFPDSEFIAKDIKIPIPGFKPLRLNVFRLIWRTVFVIITTVISMLLPFFNDVVGLLGALGFWPLTVYFPVEMYIAQKKIPRWSTRWVCLQVFSLGCLVVSIAAAAGSIAGVLLDLKSYKPFRSEY
# How the values were obtained:
# Test in all cases: glycan array binding signal (z-score within array); higher = stronger binding
# Details in all cases: glycan notation: IUPAC condensed, linker removed
# [1] = target: Gal(b1-4)GlcNAc(b1-3)Gal(b1-4)GlcNAc(b1-3)Gal(b1-4)GlcNAc
# Procedure, shortened: (§1)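 The Consortium for Functional Glycomics database supplied 3228 glycan arrays, of which those lacking an available protein sequence were dropped. The binding signal, a within-array Z-score, was averaged across arrays of the same protein sequence and across linkers. Negative scores can be read as non-binding.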
# [2] = target: Gal(b1-4)GlcNAc(b1-3)Gal(b1-4)GlcNAc(b1-3)Gal(b1-4)GlcNAc(b1-2)Man(a1-3)[Gal(b1-4)GlcNAc(b1-3)Gal(b1-4)GlcNAc(b1-3)Gal(b1-4)GlcNAc(b1-2)Man(a1-6)]Man(b1-4)GlcNAc(b1-4)GlcNAc
# Procedure, shortened: as §1
# [3] = target: Gal(b1-4)GlcNAc(b1-3)Gal(b1-4)GlcNAc(b1-3)Gal(b1-4)GlcNAc(b1-2)Man(a1-3)[Gal(b1-4)GlcNAc(b1-3)Gal(b1-4)GlcNAc(b1-3)Gal(b1-4)GlcNAc(b1-2)Man(a1-6)]Man(b1-4)GlcNAc(b1-4)[Fuc(a1-6)]GlcNAc
# Procedure, shortened: as §1
# [4] = target: Gal(b1-4)GlcNAc(b1-3)Gal(b1-4)GlcNAc(b1-3)Gal(b1-4)GlcNAc(b1-2)[Gal(b1-4)GlcNAc(b1-3)Gal(b1-4)GlcNAc(b1-3)Gal(b1-4)GlcNAc(b1-6)]Man(a1-6)[Gal(b1-4)GlcNAc(b1-3)Gal(b1-4)GlcNAc(b1-3)Gal(b1-4)GlcNAc(b1-2)Man(a1-3)]Man(b1-4)GlcNAc(b1-4)[Fuc(a1-6)]GlcNAc
# Procedure, shortened: as §1
# [5] = target: Gal(b1-4)GlcNAc(b1-3)Gal(b1-4)GlcNAc(b1-3)Gal(b1-4)GlcNAc(b1-3)Gal(b1-4)GlcNAc(b1-2)Man(a1-3)[Gal(b1-4)GlcNAc(b1-3)Gal(b1-4)GlcNAc(b1-3)Gal(b1-4)GlcNAc(b1-3)Gal(b1-4)GlcNAc(b1-2)Man(a1-6)]Man(b1-4)GlcNAc(b1-4)GlcNAc
# Procedure, shortened: as §1
# [6] = target: Gal(b1-4)GlcNAc(b1-3)Gal(b1-4)GlcNAc(b1-3)Gal(b1-4)GlcNAc(b1-3)Gal(b1-4)GlcNAc(b1-2)Man(a1-3)[Gal(b1-4)GlcNAc(b1-3)Gal(b1-4)GlcNAc(b1-3)Gal(b1-4)GlcNAc(b1-3)Gal(b1-4)GlcNAc(b1-2)Man(a1-6)]Man(b1-4)GlcNAc(b1-4)[Fuc(a1-6)]GlcNAc
# Procedure, shortened: as §1
# [7] = target: Gal(b1-4)GlcNAc(b1-3)Gal(b1-4)GlcNAc(b1-3)Gal(b1-4)GlcNAc(b1-3)Gal(b1-4)GlcNAc(b1-2)[Gal(b1-4)GlcNAc(b1-3)Gal(b1-4)GlcNAc(b1-3)Gal(b1-4)GlcNAc(b1-3)Gal(b1-4)GlcNAc(b1-6)]Man(a1-6)[Gal(b1-4)GlcNAc(b1-3)Gal(b1-4)GlcNAc(b1-3)Gal(b1-4)GlcNAc(b1-3)Gal(b1-4)GlcNAc(b1-2)Man(a1-3)]Man(b1-4)GlcNAc(b1-4)[Fuc(a1-6)]GlcNAc
# Procedure, shortened: as §1
# [8] = target: Gal(b1-4)GlcNAc(b1-3)Gal(b1-4)GlcNAc(b1-3)Gal(b1-4)GlcNAc(b1-3)Gal(b1-4)GlcNAc(b1-3)Gal(b1-4)GlcNAc(b1-2)Man(a1-3)[Gal(b1-4)GlcNAc(b1-3)Gal(b1-4)GlcNAc(b1-3)Gal(b1-4)GlcNAc(b1-3)Gal(b1-4)GlcNAc(b1-3)Gal(b1-4)GlcNAc(b1-2)Man(a1-6)]Man(b1-4)GlcNAc(b1-4)GlcNAc
# Procedure, shortened: as §1
# [9] = target: Gal(b1-4)GlcNAc(b1-3)Gal(b1-4)GlcNAc(b1-3)Gal(b1-4)GlcNAc(b1-3)Gal(b1-4)GlcNAc(b1-3)Gal(b1-4)GlcNAc(b1-2)Man(a1-3)[Gal(b1-4)GlcNAc(b1-3)Gal(b1-4)GlcNAc(b1-3)Gal(b1-4)GlcNAc(b1-3)Gal(b1-4)GlcNAc(b1-3)Gal(b1-4)GlcNAc(b1-2)Man(a1-6)]Man(b1-4)GlcNAc(b1-4)[Fuc(a1-6)]GlcNAc
# Procedure, shortened: as §1
# [10] = target: Gal(b1-4)GlcNAc(b1-3)Gal(b1-4)GlcNAc(b1-3)Gal(b1-4)GlcNAc(b1-3)Gal(b1-4)GlcNAc(b1-3)Gal(b1-4)GlcNAc(b1-2)[Gal(b1-4)GlcNAc(b1-3)Gal(b1-4)GlcNAc(b1-3)Gal(b1-4)GlcNAc(b1-3)Gal(b1-4)GlcNAc(b1-3)Gal(b1-4)GlcNAc(b1-6)]Man(a1-6)[Gal(b1-4)GlcNAc(b1-3)Gal(b1-4)GlcNAc(b1-3)Gal(b1-4)GlcNAc(b1-3)Gal(b1-4)GlcNAc(b1-3)Gal(b1-4)GlcNAc(b1-2)Man(a1-3)]Man(b1-4)GlcNAc(b1-4)[Fuc(a1-6)]GlcNAc
# Procedure, shortened: as §1
# [11] = target: Gal(b1-4)GlcNAc(b1-3)Gal(b1-4)GlcNAc(b1-3)Gal(b1-4)GlcNAc(b1-3)Gal(b1-4)GlcNAc(b1-3)Gal(b1-4)GlcNAc(b1-3)Gal(b1-4)GlcNAc(b1-2)Man(a1-3)[Gal(b1-4)GlcNAc(b1-3)Gal(b1-4)GlcNAc(b1-3)Gal(b1-4)GlcNAc(b1-3)Gal(b1-4)GlcNAc(b1-3)Gal(b1-4)GlcNAc(b1-3)Gal(b1-4)GlcNAc(b1-2)Man(a1-6)]Man(b1-4)GlcNAc(b1-4)GlcNAc
# Procedure, shortened: as §1
# [12] = target: Gal(b1-4)GlcNAc(b1-3)Gal(b1-4)GlcNAc(b1-3)GalNAc
# Procedure, shortened: as §1
# [13] = target: Gal(b1-4)GlcNAc(b1-3)Gal(b1-4)GlcNAc(b1-3)[Gal(b1-4)GlcNAc(b1-3)Gal(b1-4)GlcNAc(b1-6)]GalNAc
# Procedure, shortened: as §1
# [14] = target: Gal(b1-4)GlcNAc(b1-3)Gal(b1-4)GlcNAc(b1-6)[Gal(b1-3)]GalNAc
# Procedure, shortened: as §1
# [15] = target: Gal(b1-4)GlcNAc(b1-3)Gal(b1-4)[Fuc(a1-3)]GlcNAc(b1-3)Gal(b1-4)[Fuc(a1-3)]GlcNAc
# Procedure, shortened: as §1
# [16] = target: Gal(b1-4)GlcNAc(b1-3)GalNAc
# Procedure, shortened: as §1
# [17] = target: Gal(b1-4)GlcNAc(b1-3)[Fuc(a1-3)GlcNAc(b1-6)]Gal(b1-4)Glc
# Procedure, shortened: as §1
# [18] = target: Gal(b1-4)GlcNAc(b1-3)[Gal(b1-4)GlcNAc(b1-6)]Gal(b1-4)GlcNAc
# Procedure, shortened: as §1
# [19] = target: Gal(b1-4)GlcNAc(b1-3)[GlcNAc(b1-6)]Gal(b1-4)GlcNAc
# Procedure, shortened: as §1
binder,measurement,setting,value
B1,glycan array binding signal (z-score),[1],-0.646
same,glycan array binding signal (z-score),[2],-0.605
same,glycan array binding signal (z-score),[3],-0.417
same,glycan array binding signal (z-score),[4],-0.799
same,glycan array binding signal (z-score),[5],-0.631
same,glycan array binding signal (z-score),[6],-0.033
same,glycan array binding signal (z-score),[7],-0.813
same,glycan array binding signal (z-score),[8],-0.618
same,glycan array binding signal (z-score),[9],-0.495
same,glycan array binding signal (z-score),[10],-0.494
same,glycan array binding signal (z-score),[11],-0.632
same,glycan array binding signal (z-score),[12],-1.04
same,glycan array binding signal (z-score),[13],-0.589
same,glycan array binding signal (z-score),[14],-0.334
same,glycan array binding signal (z-score),[15],0.614
same,glycan array binding signal (z-score),[16],-0.413
same,glycan array binding signal (z-score),[17],0.166
same,glycan array binding signal (z-score),[18],-0.529
same,glycan array binding signal (z-score),[19],1.28

# As a short view, part of the list above.
binder,measurement,setting,value
B1,glycan array binding signal (z-score),[13],-0.589
same,glycan array binding signal (z-score),[14],-0.334
